Measured values taken from PubChem BioAssay (NCATS).
Inconclusive means that the source gave no clear call. Such entries were picked first, then a sample of the others. Where the call is inconclusive, the potency comes from a doubtful curve fit. Calls of active or inactive are those of the source. Calls come from the whole dose curve; as a rule, active = well fitted curve in the direction sought with a large enough effect; inconclusive = small, poorly fitted or top-dose-only effect, or another doubt; inactive = no such curve, though single readings can be large; an effect the other way counts as inactive or inconclusive.

Tests used:
[1] = qHTS of pediatric cancer cell lines to identify multiple opportunities for drug repurposing: Confirmatory screen for SK-N-MC cells (AID 1347111);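 note: cells exposed to compound for 48 h before the readout; nearly all actives have a fitted effect of over 70% in size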
Outline: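 Seed 500-1,000 cells/well; rest 5 h at 37 degrees C. Pin-transfer compounds, 11-point titration. Incubate 48 h. Add CellTiter-Glo, 15 min RT, read luminescence.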

[2] = qHTS of pediatric cancer cell lines to identify multiple opportunities for drug repurposing: Confirmatory screen for LAN-5 cells (AID 1347113); conditions: activity change, negative = cytotoxicity: at 45.9 µM (top of the series); note: nearly all actives have a fitted effect of over 65% in size
Outline: (§1)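 Cells (500-1,000/well) rested 5 h, then received compounds for 48 h; metabolically active cells were measured by CellTiter-Glo luminescence. Final concentrations spanned up to 46 µM (MIPE, 11-point) or 0.59 nM-46 µM (NPC, 8-point) in primary screens, 11-point in follow-ups.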

[3] = qHTS of pediatric cancer cell lines to identify multiple opportunities for drug repurposing: Confirmatory screen for BT-37 cells (AID 1347117); note: nearly all actives have a fitted effect of over 55% in size
Outline: as §1

[4] = qHTS of pediatric cancer cell lines to identify multiple opportunities for drug repurposing: Confirmatory screen for TC32 cells (AID 1347118);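 note: cells exposed to compound for 48 h before the read; nearly all actives have a fitted effect of over 65% in size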
Outline: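 Measured quantity: luminescence from CellTiter-Glo, reflecting metabolically active TC32 cells following 48 h of compound. Curves came straight from multi-point titrations, with 8 or 11 points in primary and 11 in confirmatory screening.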

[5] = qHTS of pediatric cancer cell lines to identify multiple opportunities for drug repurposing: Confirmatory screen for MG 63 (6-TG R) cells (AID 1347119); conditions: MG-63 (6-TG resistant) osteosarcoma viability; activity change, negative = cytotoxicity: at 45.9 µM (top of the series); note: nearly all actives have a fitted effect of over 55% in size
Outline: as §1

[6] = qHTS of pediatric cancer cell lines to identify multiple opportunities for drug repurposing: Confirmatory screen for BT-12 cells (AID 1347112);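 note: viability read after 48 h of compound exposure; nearly all actives have a fitted effect of over 55% in size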
Outline: as §1

[7] = qHTS of pediatric cancer cell lines to identify multiple opportunities for drug repurposing: Confirmatory screen for DAOY cells (AID 1347114); note: nearly all actives have a fitted effect of over 65% in size
Outline: (§2)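 Viability measured as metabolically active cells via CellTiter-Glo luminescence following 48 hours of compound exposure, 11-point dilutions in confirmatory testing. 500-1,000 cells/well plated 5 hours before dosing; controls were DMSO and 2.3 µM bortezomib.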

[8] = qHTS of pediatric cancer cell lines to identify multiple opportunities for drug repurposing: Confirmatory screen for NB-EBc1 cells (AID 1347115); conditions: NB-EBc1 neuroblastoma cells, viability (cytotoxicity); activity change, negative = cytotoxic: at 45.9 µM (top of the series);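 note: cells exposed to compound for 48 h before the viability read; nearly all actives have a fitted effect of over 45% in size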
Outline: as §1

[9] = qHTS of pediatric cancer cell lines to identify multiple opportunities for drug repurposing: Confirmatory screen for SJ-GBM2 cells (AID 1347116); note: nearly all actives have a fitted effect of over 60% in size
Outline: as §2
Potency is the fitted concentration of half-maximal effect.

SMILES: Nc1ncn([C@H]2C[C@H](O)[C@@H](CO)O2)c(=O)n1
- Potency [1]: inconclusive: 36.9 µM [cytotoxic, single point]
- Potency [2]: inactive
- Potency [3]: inconclusive: 1.65 µM [cytotoxic, full curve, poor fit]
- Potency [4]: inconclusive: 23.3 µM [cytotoxic, partial curve]
- Potency [5]: inactive

SMILES: Cc1c(CN2CCN(S(C)(=O)=O)CC2)sc2c(N3CCOCC3)nc(-c3cnc(N)nc3)nc12
- Potency [6]: inconclusive: 4.65 µM [cytotoxic, full curve]
- Potency [7]: inconclusive: 1.65 µM [cytotoxic, full curve, poor fit]
- Potency [8]: inconclusive: 1.65 µM [cytotoxic, full curve]
- Potency [9]: inconclusive: 2.61 µM [cytotoxic, full curve]

SMILES: O=S(=O)(O)CCS
- Potency [1]: inconclusive: 1.04 µM [cytotoxic, single point]
- Potency [6]: inconclusive: 26.1 µM [cytotoxic, single point]
- Potency [2]: inconclusive: 5.22 µM [cytotoxic, partial curve, poor fit]
- Potency [7]: inactive
- Potency [8]: inconclusive: 23.3 µM [cytotoxic, partial curve, poor fit]
- Potency [9]: inconclusive: 36.9 µM [cytotoxic, single point]
- Potency [3]: inconclusive: 26.1 µM [cytotoxic, single point]
- Potency [4]: inactive
- Potency [5]: active: 5.22 µM

SMILES: COc1ccc(C(C)=O)c(O)c1
- Potency [1]: inactive
- Potency [8]: inactive
- Potency [9]: inconclusive: 0.0165 µM [rising, full curve]
- Potency [3]: inactive
- Potency [4]: inconclusive: 32.9 µM [cytotoxic, single point]
- Potency [5]: inactive

SMILES: CC=C1NC(=O)[C@H]2CSSCCC=C[C@H](CC(=O)N[C@H](C(C)C)C(=O)N2)OC(=O)[C@H](C(C)C)NC1=O
- Potency [6]: inconclusive: 36.9 µM [cytotoxic, single point]
- Potency [2]: inactive
- Potency [7]: inactive
- Potency [9]: inactive
- Potency [3]: inconclusive: 36.9 µM [cytotoxic, single point]
- Potency [4]: active: 14.7 µM
- Potency [5]: inconclusive: 23.3 µM [rising, single point]

SMILES: Cn1cnc(=N)c2[nH]cnc21
- Potency [6]: inactive
- Potency [7]: inactive
- Potency [8]: inactive
- Potency [9]: inconclusive: 29.3 µM [cytotoxic, single point]
- Potency [3]: inactive
- Potency [4]: inactive
- Potency [5]: inactive

SMILES: COC(=O)[C@H](c1ccccc1Cl)N1CCc2sccc2C1
- Potency [1]: inactive
- Potency [6]: inactive
- Potency [2]: inactive
- Potency [7]: inactive
- Potency [9]: inactive
- Potency [4]: inactive
- Potency [5]: inactive

SMILES: COc1ccc(OC)c(-c2nnc3ccc(-c4ccc(OC)c(O[C@@H]5CCOC5)c4)nn23)c1
- Potency [6]: inactive
- Potency [2]: inconclusive: 14.7 µM [cytotoxic, partial curve, poor fit]
- Potency [7]: inconclusive: 3.69 µM [cytotoxic, full curve]
- Potency [8]: inconclusive: 1.17 µM [cytotoxic, full curve]
- Potency [9]: inconclusive: 9.27 µM [cytotoxic, full curve, poor fit]
- Potency [5]: inconclusive: 4.65 µM [cytotoxic, partial curve]

SMILES: Cc1cn(-c2cc(NC(=O)c3ccc(C)c(Nc4nccc(-c5cccnc5)n4)c3)cc(C(F)(F)F)c2)cn1
- Potency [1]: inactive
- Potency [2]: active: 18.5 µM
- Potency [8]: inactive
- Potency [9]: inconclusive: 23.3 µM [cytotoxic, single point]
- Potency [4]: inconclusive: 2.08 µM [cytotoxic, full curve]
- Potency [5]: inconclusive: 0.465 µM [rising, full curve]

SMILES: CCC(=O)N1CCN(c2ccc(-n3c(=O)ccc4cnc5ccc(-c6cnc7ccccc7c6)cc5c43)cc2C(F)(F)F)CC1
- Potency [1]: active: 9.27 µM
- Potency [6]: inactive
- Potency [9]: inconclusive: 9.27 µM [rising, full curve]
- Potency [3]: inconclusive: 11.7 µM [cytotoxic, single point]
- Potency [4]: active: 8.27 µM
- Potency [5]: inconclusive: 8.27 µM [cytotoxic, partial curve, poor fit]

SMILES: COc1cc2nccc(Oc3ccc(NC(=O)Nc4cc(C)on4)c(Cl)c3)c2cc1OC
- Potency [6]: inconclusive: 29.3 µM [cytotoxic, partial curve]
- Potency [7]: inconclusive: 0.369 µM [cytotoxic, full curve, poor fit]
- Potency [8]: inconclusive: 32.9 µM [cytotoxic, single point]
- Potency [9]: inconclusive: 0.0522 µM [cytotoxic, full curve, poor fit]
- Potency [3]: inconclusive: 16.5 µM [cytotoxic, partial curve]
- Potency [5]: inconclusive: 4.14 µM [cytotoxic, partial curve, poor fit]
